Binding data for 2 substances are collected here from PMC3565290.

By UniProt entry, the sequences of proteins in these tests, tags left out.
UniProt O81445: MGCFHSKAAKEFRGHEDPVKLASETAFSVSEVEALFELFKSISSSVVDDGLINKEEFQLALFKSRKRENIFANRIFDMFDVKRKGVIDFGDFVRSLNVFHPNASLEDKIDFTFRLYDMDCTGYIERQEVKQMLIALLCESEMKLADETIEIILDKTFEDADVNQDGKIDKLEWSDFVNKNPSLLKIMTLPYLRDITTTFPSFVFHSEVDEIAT

Test [1] addresses T1, VDAC1 (voltage-dependent anion channel 1, AtVDAC1) in pGBKT7, two-hybrid bait (Arabidopsis) (UniProt Q9SRH5).
T1 sequence: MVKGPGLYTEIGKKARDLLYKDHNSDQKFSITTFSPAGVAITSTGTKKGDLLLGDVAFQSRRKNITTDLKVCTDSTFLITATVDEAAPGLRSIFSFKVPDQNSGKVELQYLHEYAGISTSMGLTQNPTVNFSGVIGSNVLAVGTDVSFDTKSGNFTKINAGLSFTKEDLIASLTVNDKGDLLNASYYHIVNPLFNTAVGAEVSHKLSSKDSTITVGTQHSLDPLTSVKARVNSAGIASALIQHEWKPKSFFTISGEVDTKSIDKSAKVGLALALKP
As to the kind of experiment: two-hybrid; directed test: pGADT7-CBL1 (full coding sequence) co-introduced with pGBKT7-VDAC1 into yeast AH109; growth on SD-Trp-Leu-Ade-His for four days, then β-galactosidase assay; empty vectors as controls.

The next test has as its target T2, GST-VDAC1 (Arabidopsis) (UniProt Q9SRH5).
T2 sequence: T1 sequence
Nature of the test: pull-down; GST-VDAC1 on glutathione sepharose beads incubated overnight at 4 °C with purified His-CBL1; washed five times with ice-cold phosphate-buffered saline; western blot with anti-His antibody; both purified.

Results are given in words; binding and its absence hold for the method and conditions named. Some results given as binding are weak or reduced against the parent protein; the word gives no strength. Sequences can lack the tags named with a protein.

As to “CBL1 (calcineurin B-like 1), full coding sequence in pGADT7-Rec2, two-hybrid prey (from UniProt O81445 1-213)”, the binding result in test [1] is “binds”.

Turning to His-CBL1 (from UniProt O81445 1-213), in the test with GST-VDAC1 (Arabidopsis), the binding result is on record as “binds”.
